According to publication PMC12271312:
These are yes or no findings as the source states them, for the method shown. Binding seen in cells or lysates may run through a third protein. Some binding calls cover weakened binding; strength is not graded here.

The chains behind the UniProt entries cited, without tags or fusion partners.
UniProt Q00613: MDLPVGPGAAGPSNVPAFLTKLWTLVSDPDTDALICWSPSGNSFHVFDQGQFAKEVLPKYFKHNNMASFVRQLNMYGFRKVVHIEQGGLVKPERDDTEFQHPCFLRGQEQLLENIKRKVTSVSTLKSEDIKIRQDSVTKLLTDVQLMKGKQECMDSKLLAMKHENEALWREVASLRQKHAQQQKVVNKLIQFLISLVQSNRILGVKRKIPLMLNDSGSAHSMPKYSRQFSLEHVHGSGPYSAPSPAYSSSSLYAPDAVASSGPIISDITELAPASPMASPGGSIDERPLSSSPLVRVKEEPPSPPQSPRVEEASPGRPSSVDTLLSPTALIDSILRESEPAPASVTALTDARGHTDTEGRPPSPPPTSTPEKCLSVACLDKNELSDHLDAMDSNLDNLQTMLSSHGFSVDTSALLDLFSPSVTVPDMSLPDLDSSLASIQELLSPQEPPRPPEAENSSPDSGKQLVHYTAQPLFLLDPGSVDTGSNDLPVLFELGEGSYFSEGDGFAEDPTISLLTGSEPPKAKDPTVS
UniProt O14744: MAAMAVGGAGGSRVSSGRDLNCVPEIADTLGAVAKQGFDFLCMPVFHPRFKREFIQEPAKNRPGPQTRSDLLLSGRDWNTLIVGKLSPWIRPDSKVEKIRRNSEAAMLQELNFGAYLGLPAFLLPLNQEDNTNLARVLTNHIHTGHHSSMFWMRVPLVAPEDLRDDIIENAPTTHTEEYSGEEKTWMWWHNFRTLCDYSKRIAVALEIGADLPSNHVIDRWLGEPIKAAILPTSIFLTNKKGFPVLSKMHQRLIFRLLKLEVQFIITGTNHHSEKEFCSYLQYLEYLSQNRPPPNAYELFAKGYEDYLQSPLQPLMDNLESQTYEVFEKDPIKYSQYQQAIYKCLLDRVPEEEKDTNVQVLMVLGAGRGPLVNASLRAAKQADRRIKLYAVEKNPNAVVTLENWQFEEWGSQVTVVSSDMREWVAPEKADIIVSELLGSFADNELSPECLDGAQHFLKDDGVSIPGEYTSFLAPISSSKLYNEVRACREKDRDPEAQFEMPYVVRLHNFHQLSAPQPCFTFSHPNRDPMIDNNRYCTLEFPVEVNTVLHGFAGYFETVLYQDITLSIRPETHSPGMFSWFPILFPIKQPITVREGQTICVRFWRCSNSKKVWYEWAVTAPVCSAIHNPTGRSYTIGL

Target: Heat shock factor 1 (human (endogenous in SU-DHL-2, SU-DHL-4, SU-DHL-6)) (UniProt Q00613)
Assay: co-IP; nuclear extracts of wild-type SU-DHL-2, SU-DHL-4 and SU-DHL-6 cells incubated with anti-HSF1, anti-PRMT5 or control IgG at 4 °C overnight, A/G magnetic beads at 25 °C for 2 h; western blotting

binding: binds
Substance: protein arginine methyltransferase 5 (from UniProt O14744 1-637) (enzyme)
